These are yes or no findings as the source states them, for the method shown. In cells and extracts the contact can be indirect. Some entries that bind do so weakly or less than the wild type.

Amino acid sequences for entries named in this document (tags omitted).
UniProt O35303: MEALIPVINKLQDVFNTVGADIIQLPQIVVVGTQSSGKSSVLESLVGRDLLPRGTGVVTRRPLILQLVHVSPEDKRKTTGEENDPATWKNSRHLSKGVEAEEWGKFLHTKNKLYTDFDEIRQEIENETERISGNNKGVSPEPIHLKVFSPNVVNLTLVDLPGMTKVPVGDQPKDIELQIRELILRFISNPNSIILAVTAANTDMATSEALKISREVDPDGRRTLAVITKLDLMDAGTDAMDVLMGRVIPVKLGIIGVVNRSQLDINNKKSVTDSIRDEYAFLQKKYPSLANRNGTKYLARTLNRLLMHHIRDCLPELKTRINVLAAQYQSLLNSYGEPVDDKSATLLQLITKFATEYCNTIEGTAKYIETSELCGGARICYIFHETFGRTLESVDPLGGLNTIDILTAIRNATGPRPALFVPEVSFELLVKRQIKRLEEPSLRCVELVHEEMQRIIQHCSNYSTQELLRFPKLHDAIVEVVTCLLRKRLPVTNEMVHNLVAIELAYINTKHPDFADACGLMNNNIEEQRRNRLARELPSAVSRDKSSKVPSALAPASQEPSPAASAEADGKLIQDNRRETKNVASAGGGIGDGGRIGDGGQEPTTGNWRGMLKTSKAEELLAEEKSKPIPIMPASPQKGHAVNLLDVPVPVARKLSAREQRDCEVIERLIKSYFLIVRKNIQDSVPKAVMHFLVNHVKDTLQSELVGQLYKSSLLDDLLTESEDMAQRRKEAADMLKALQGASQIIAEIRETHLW

This test has as its target dynein-related protein 1 (rat (endogenous in H9c2)) (UniProt O35303). Nature of the test: co-IP; H9c2 cell lysates (control, H/R, H/R + 100 nM Vit D, Vit D); 1 ug antibody, protein A/G Sepharose beads overnight at 4 C; Western blot. Background: A western blot detects proteins with antibodies after separation by electrophoresis.

B1: mitochondrial fission factor (protein, UniProt Q4KM98 1-218)
chain: MAEISRIQYEMEYTEGISQRMRVPEKLKVAPPNADLEQGFQDGVPNASVIMQVPERIVVTGNNEDISFSRPADLDLIQSTPFKPLALKTPPRVLTLSERPLDFLDLERPPPTPQSEEIRAVGRLKRERSMSENAVRQNGQLVRNDSMYGISSLDAAVEGASEDMSVVDAASLRRQIIKLNRRLQLLEEENKERAKREMVMYSITVAFWLLNSWLWFRR
As for B1, the binding entry is “binds”.

The values above are taken from publication PMC7758530.
